# Data taken from PubChem BioAssay AID2685 (National Center for Advancing Translational Sciences (NCATS), 2010).
# Where “and” joins values, the source holds several entries; their conditions need not be identical. Equal values may be shown once. The list shows a part of the results. Shown are side measurements of this screen, not its main read-out; they come without a call. The list favours compounds with an active or inconclusive main result. Words in brackets tell the shape of the fitted curve; partial curves, single points and poor fits give uncertain potencies.
# Assay: qHTS Assay for Lipid Storage Modulators in Drosophila S3 Cells;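 as to cell number change: cells counted by Cell Tracker Red CMTPX staining in the red channel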
# Details: BODIPY lipid droplet fluorescence, 18-24 h; for cell number change: measured here: cell count max response, cells fed with added oleic acid
# In short: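 Drosophila S3 cells got compounds at several concentrations plus oleic acid (400 uM solution). Laser-scanning cytometry with 488 nm excitation read lipid droplets at 500-530 nm and cells at 575-640 nm. Percent activity was relative to 20 uM Triacsin C.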
# [1] = measured here: lipid fluorescence (Fed channel) AC50, cells fed with added oleic acid
# [2] = measured here: cell number channel AC50, cells fed with added oleic acid
SMILES,cell number change,AC50 [1],AC50 [2]
COc1cccc(OC)c1C(=O)Nc1cccnc1,-22.4%,,
COc1cccc(OC)c1C(=O)NC(=S)N1CCOCC1,22%,"29.1 µM [rising, single point]",
Cc1ccc(S(=O)(=O)N2CCN(C(=O)CSc3nc4ccccc4o3)C2)cc1,-14%,"18.4 µM [falling, single point]",
COc1ccc(C2=NS(=O)(=O)N(C)C(C(=O)NCc3ccccc3)=C2)cc1OC,2.88%,"32.6 µM [falling, single point]",
N#Cc1ccc(N=c2ssnc2Cl)cc1,-91% and -82.2%,"18.4 µM [falling, partial curve] and 5.8 µM [falling, single point]","23.1 µM [falling, partial curve] and 11.6 µM [falling, partial curve]"
O=C(Nc1nccs1)c1cc(S(=O)(=O)N2CCOCC2)ccc1Cl,-18%,,
O=C1CC(C(=O)Nc2cccc(Cl)c2)n2ncnc2N1 (centres undefined),-28.9%,"16.4 µM [falling, single point]",
CC(C)C(c1nnnn1Cc1cccs1)N1CCN(C(=O)c2ccco2)CC1 (centres undefined),12.3%,,"6.51 µM [rising, single point]"
O=C(Nc1ccccc1)c1ccccc1NC(=O)C(F)(F)F,-21.8%,"29.1 µM [rising, single point]","6.51 µM [falling, single point]"
COc1ccc(OC)c(CCNC(=O)c2ccc(NC3=NC4CS(=O)(=O)CC4S3)cc2)c1 (centres undefined),35.7%,,"0.651 µM [rising, partial curve]"
CSc1ccccc1OCc1cc(C(=O)N2CCN(c3ccccc3)CC2C)no1 (centres undefined),31.2%,,"22.4 µM [rising, partial curve, poor fit]"
N#CC1=C2SCC(O)(c3ccccc3)N2C(=O)CC1c1ccccc1 (centres undefined),-3.64%,,
CCOc1ccc2[nH]c(=O)c(C(c3nnnn3C3CCCCC3)N3CCN(C)CC3)cc2c1 (centres undefined),18.3%,"20.6 µM [rising, single point]",
COC(C)(C)[C@@H](O)COc1c2ccoc2cc2oc(=O)ccc12,1.32%,"5.17 µM [rising, partial curve, poor fit]",
O=C(NC1CCCCC1)N1CCC(n2cnc3ccccc32)CC1,0.203%,"6.51 µM [falling, partial curve]",
COc1ccc(C(=O)N2CCN(c3ccccc3)CC2)cc1S(=O)(=O)N1CCOCC1,,"4.11 µM [falling, full curve]",
Cc1cc(C)c(NC(=O)CSc2nc(COc3ccccc3)nc3ccccc23)c(C)c1,-23.1%,"6.51 µM [falling, single point]",
COc1ccc(C2=NN(C(=O)c3cccs3)C(c3ccccc3O)C2)cc1 (centres undefined),-36.2%,"23.1 µM [falling, single point]","20.6 µM [falling, single point]"
COc1ccccc1OCCNc1cc(N2CCOCC2)ccc1[N+](=O)[O-],,"20.6 µM [rising, single point]",
CCOC(=O)CSC1=C(C#N)C(c2sccc2C)CC(=O)N1 (centres undefined),58.2%,,"29.1 µM [rising, single point]"
COCC(=O)Nc1ccc(N2CCN(c3ccccc3)CC2)c(F)c1,,"0.58 µM [rising, single point]",

# Complete entries as entered above:
# `N#Cc1ccc(N=c2ssnc2Cl)cc1` as listed: cell number change: -91% and -82.2%; AC50 [1]: 18.4 µM [falling, partial curve] and 5.8 µM [falling, single point]; AC50 [2]: 23.1 µM [falling, partial curve] and 11.6 µM [falling, partial curve]
# `CC(C)C(c1nnnn1Cc1cccs1)N1CCN(C(=O)c2ccco2)CC1` (centres undefined) as listed: cell number change: 12.3%; AC50 [2]: 6.51 µM [rising, single point]

# Continuation:

SMILES,cell number change,AC50 [1],AC50 [2]
CCOc1ccc(-c2nc(N)ncc2Oc2ccccc2Br)c(O)c1,-42%,"3.66 µM [rising, full curve]","29.1 µM [falling, single point]"
CCCn1nnc(NC(=O)c2ccc(-c3cc(Cl)ccc3Cl)o2)n1,-26.6%,,
O=C1C=C(c2ccc(Cl)cc2)OC2(CCCC2)O1,-17.7%,"0.92 µM [falling, partial curve]",
COCCNC(=O)c1ccc(C)c(S(=O)(=O)Nc2ccc(C)cc2)c1,50.3%,,"29.1 µM [rising, single point]"
Cc1nc(Cl)c(C(=O)NCc2ccccc2)c(C)c1Cl,30.2%,,"29.1 µM [rising, single point]"
CC1=NN(C(=O)c2ccc(Cn3cc([N+](=O)[O-])cn3)cc2)C(O)(C(F)(F)F)C1 (centres undefined),27.9%,"0.058 µM [rising, full curve, poor fit]",
COc1ccc(C(=O)Nc2ccccn2)cc1,23.6%,"23.1 µM [rising, partial curve, poor fit]",
Nc1ccc(S(N)(=O)=O)cc1N,-11.7%,"32.6 µM [falling, single point]",
Cc1cccc(CN2CCC(CNC(=O)C3CCCN(S(=O)(=O)c4cnc[nH]4)C3)CC2)c1 (centres undefined),-29.6%,"14.6 µM [falling, partial curve]","0.92 µM [falling, full curve]"
O=C(NCCc1ccccc1Cl)c1ccc2nc3ccccc3c(=O)n2c1,2.11%,,
Cc1cccc(OCC(=O)O/N=C(\N)Cc2ccc(Cl)cc2)c1,-2.37%,,"0.517 µM [falling, single point]"
Cc1cc(NC(=O)C2CCCCC2)ncc1NC(=O)c1ccccn1,0.894%,"0.411 µM [falling, partial curve, poor fit]","0.326 µM [falling, partial curve, poor fit]"
O=C(NC1CC1)C1CCCN1S(=O)(=O)c1ccc2ccccc2c1 (centres undefined),9.3%,"0.82 µM [falling, single point]",
O=C(Cn1c(=O)oc2cc(S(=O)(=O)NCc3ccccc3)ccc21)N1CCCC1,12.8%,,
C=CCOC(=O)C1=C(C)NC(=O)NC1C1CC=CCC1 (centres undefined),-14.1%,,
COc1ccc2nc(NC(=O)C3CCN(S(=O)(=O)c4cccs4)CC3)sc2c1,40.8%,"6.51 µM [rising, single point]","4.61 µM [rising, full curve]"
Cc1[nH]c2ccc(S(N)(=O)=O)cc2c1C,0.407%,"0.82 µM [rising, full curve, poor fit]",
CCCn1nc(NC(=O)C(C)(C)C)c2cc3cc(OC)ccc3nc21,-2.7%,"29.1 µM [rising, single point]",
NCC(c1ccccc1Cl)c1c[nH]c2ccccc12 (centres undefined),-23.6%,"29.1 µM [rising, single point]",
Clc1ccc(Nc2nc(-c3cccs3)cs2)nc1,,"2.31 µM [rising, partial curve]","2.06 µM [rising, partial curve]"
Cn1[nH]c(=O)c(Cl)c(Cl)c1=O,-18%,,

# Two records picked at random from the list so far, as already listed:
SMILES,cell number change,AC50 [1],AC50 [2]
NCC(c1ccccc1Cl)c1c[nH]c2ccccc12 (centres undefined),-23.6%,"29.1 µM [rising, single point]",
Cc1cc(NC(=O)C2CCCCC2)ncc1NC(=O)c1ccccn1,0.894%,"0.411 µM [falling, partial curve, poor fit]","0.326 µM [falling, partial curve, poor fit]"

# Additional compounds follow.

SMILES,cell number change,AC50 [1],AC50 [2]
Cc1ccc(S(=O)(=O)CCc2nnc(NC(=O)c3ccccn3)s2)cc1,-40.9%,"0.00517 µM [falling, full curve]",
Cc1ccc(Cl)cc1NC(=O)C(=O)N1CCCCC1,42.1%,"14.6 µM [rising, partial curve]","1.03 µM [rising, full curve, poor fit]"
FC(F)(F)c1cccc(Nc2nc(N3CCOCC3)nc(N3CCOCC3)n2)c1,-9.07%,"0.82 µM [rising, full curve]",
Cc1ccc(NCc2nnc(SCC(=O)c3ccccc3)n2Cc2ccco2)c(C)c1,4.57%,"2.31 µM [rising, partial curve]",
O=S(=O)(NCc1ccccc1)c1ccc(F)cc1Br,16.3%,,
O=[N+]([O-])c1cccc2ccc(/C=C/c3ccc(F)cc3)nc12,33.3%,"0.517 µM [rising, full curve]","32.6 µM [rising, single point]"
CCOCCOC(=O)c1ccc(NC(=O)C2COc3ccccc3O2)cc1 (centres undefined),-4.67%,,"5.17 µM [falling, single point]"
O=c1[nH]c2c(s1)C(c1ccco1)C1C3CCC(C3)C1S2 (centres undefined),36.3%,,"32.6 µM [rising, single point]"
O=C(CSc1nn(-c2ccc(Cl)cc2)c(=S)s1)NCC1CCCO1 (centres undefined),33%,,"13 µM [rising, single point]"
COc1ccc(NC(=O)c2cc(Br)c(Br)s2)cn1,9.29%,,
O=C(NCc1ccc2c(c1)OCO2)Nc1ccc(F)cc1,-33.9%,,
COc1ccc(NC(=O)C2CCCN2S(=O)(=O)c2cccc3cccnc23)cc1OC (centres undefined),-64.6%,,"18.4 µM [falling, single point]"
O/N=C1\CCCC\C1=C/c1ccccc1,20.3%,"5.8 µM [falling, full curve]",
O=C(CCc1nnc(CCCCc2ccccc2)o1)NCc1cc(F)ccc1F,-15.3%,"29.1 µM [falling, single point]",
CCOc1ccc(NC(=O)CN(C)C(=O)c2cccnc2Sc2ccc(C)c(C)c2)cc1OCC,-18.8%,"0.58 µM [falling, single point]",
Cc1cccn2c(=O)c3cc(C(=O)NC4CCCC4)n(C)c3nc12,21.4%,"6.51 µM [falling, single point]",
CCCCn1c(N)c(N(CCOC)C(=O)c2cccc(S(=O)(=O)N3CCCCCC3)c2)c(=O)[nH]c1=O,-10.4%,,
Cc1cccc(N(C)S(=O)(=O)c2cc3c(cc2C)n(C)c(=O)c(=O)n3C)c1,,"23.1 µM [falling, single point]",
COc1ccccc1NC(=O)C(=O)NNC(=O)c1ccco1,,"0.58 µM [rising, full curve]","0.461 µM [rising, full curve]"
CCc1cc(CNC(=O)c2ccc(OC3CCN(C(C)=O)CC3)c(OC)c2)on1,-3.05%,"18.4 µM [falling, single point]",
O=C(CNC(=O)c1cccs1)OCc1ccc(Cl)cc1,-18.1%,"29.1 µM [falling, single point]",
